Reference: publication PMC11181667
These are yes or no findings as the source states them, for the method shown. In cells and extracts the contact can be indirect. A yes stands for co-enrichment or nearness to the bait. Other partners may have been found.

By UniProt entry, the sequences of proteins in these tests, tags left out.
UniProt Q13546: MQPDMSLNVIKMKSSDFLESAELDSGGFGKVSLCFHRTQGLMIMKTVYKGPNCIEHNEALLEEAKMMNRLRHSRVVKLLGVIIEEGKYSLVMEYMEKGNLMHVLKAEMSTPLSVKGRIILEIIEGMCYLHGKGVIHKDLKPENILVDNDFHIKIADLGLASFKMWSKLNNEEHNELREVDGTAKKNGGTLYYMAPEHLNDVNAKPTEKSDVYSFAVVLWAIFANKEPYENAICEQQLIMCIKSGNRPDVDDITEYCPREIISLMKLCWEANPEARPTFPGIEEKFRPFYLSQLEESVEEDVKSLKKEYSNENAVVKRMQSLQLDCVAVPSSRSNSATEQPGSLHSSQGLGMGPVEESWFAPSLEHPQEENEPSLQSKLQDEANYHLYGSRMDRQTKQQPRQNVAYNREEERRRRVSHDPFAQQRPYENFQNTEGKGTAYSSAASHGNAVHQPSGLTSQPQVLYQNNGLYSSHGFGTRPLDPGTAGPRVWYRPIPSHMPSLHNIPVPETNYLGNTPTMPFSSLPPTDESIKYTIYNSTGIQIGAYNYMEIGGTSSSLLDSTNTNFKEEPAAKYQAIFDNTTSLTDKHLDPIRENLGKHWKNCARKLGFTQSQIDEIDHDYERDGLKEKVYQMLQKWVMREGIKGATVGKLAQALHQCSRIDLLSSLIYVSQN

Biological target: T1, OTUD6B (human (endogenous in LUAD cell lines)) (UniProt Q8N6M0)
T1 sequence: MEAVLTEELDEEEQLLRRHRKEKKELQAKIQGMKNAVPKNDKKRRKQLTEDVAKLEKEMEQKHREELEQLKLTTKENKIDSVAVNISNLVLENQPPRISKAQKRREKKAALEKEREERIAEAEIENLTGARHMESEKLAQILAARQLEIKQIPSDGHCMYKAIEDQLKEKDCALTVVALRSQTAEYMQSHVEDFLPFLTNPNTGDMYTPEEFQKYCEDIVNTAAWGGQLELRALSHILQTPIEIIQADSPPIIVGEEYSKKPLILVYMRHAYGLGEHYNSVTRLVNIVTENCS
Assay: affinity purification with mass spectrometry; LUAD cell lysates in NP-40 lysis buffer (150 mM NaCl, 10 mM HEPES pH 7.4), IP with anti-OTUD6B antibody and protein G agarose at 4 °C overnight; SDS-PAGE, Coomassie staining, specific bands analysed by mass spectrometry

binding: binds
Substance: Receptor interacting serine/threonine kinase 1 (RIPK1) (from UniProt Q13546 1-671) (enzyme)
